Laboratory results from paper PMC11508090.

B1: Ecm11 (protein, UniProt Q04110 1-302)
chain: MTVIKTEPTTEVTLYSPPSKESLSKDDAHRKKQNNKPPSSINSRSGPNKHKLAAKAPEKKINNTDKQDLSAFLLNPSLIVKPSESKKKENIVAYNDTPGIKTEHTAFQPLTPISKKRALKEKAASEKCDSFDLSRDEKPYIQKKSKTLSSVTEINSSEYKLSLNGENTSSPAKEKSQEPIENPGSYQKTRNYLFEKPDPLDTCLQDYSSMLPSNVAEEDQEYFISVADSTLEEWTNKGQEIIDQQFQLYQEIIKKRIELSYKFKGIISVINDRADALEEQGQQLEGKIKKVKTLANEILNII
B2: Zip1 (protein, UniProt P31111 1-875)
chain: MSNFFRDSSMGFKPRPNIFAKLRVRDVDSDSSANTVVENSSNCLDVGSSIEGDDTFKKPHKTSTEQELITSMSLSQRNHGYSDDMEIGSPKKTTSTDQYNRILKNDVAAIENDTDEDFEITEVREVSEGVAKETKESHGDPNDSETTLKDSKMHEYTMTNGKAPLHTSINNSSTSSNDVLLEAFTNTQRICSNLKQELQKQQQDNAKLKVRLQSYASNSDKINEKVGKYKSCLETLQERIATLTSHKNNQETKLKDLRQNHQLYQRRISGFKTSIENLNKTINDLGKNKKEADAELMKKGKEIEYLKRELDDCSGQLSEEKIKNSSLIQEMGKNREEMIKSIENFFSEDKAHHLLQFNKFEERVHDLFEKKLQKHFDVAKDTLNVGLRNTTVELSSNTETMLKQQYEDIKENLEQKMSSSKDEMAKTINELSVTQKGLIMGVQEELLTSSGNIQTALVSEMNNTRQELLDDASQTAKNYASLENLVKAYKAEIVQSNEYEERIKHLESERSTLSSQKNQIISSLGTKEAQYEDLVKKLEAKNIEISQISGKEQSLTEKNENLSNELKKVQDQLEKLNNLNITTKSNYENKISSQNEIVKALVSENDTLKQRIQQLVEIKENEQKDHTTKLEAFQKNNEQLQKLNVEVVQLKAHELELEEQNRHLKNCLEKKETGVEESLSDVKTLKQQVIVLKSEKQDITAEKLELQDNLESLEEVTKNLQQKVQSQKRELEQKIKELEEIKNHKRNEPSKKGTQNFTKPSDSPKKNATTSNLFPNNSAAIHSPMKKCPKVDHISKSRINSSKETSKFNDEFDLSSSSNDDLELTNPSPIQIKPVRGKIKKGSNCMKPPISSRKKLLLVEDEDQSLKISKKRRRK

Experiments:
Test in all cases: proximity labelling; eleven TurboID fusion strains (ndt80, homozygous) and a no-TurboID control, ~24 h sporulation, two replicates; TCA extract, streptavidin-sepharose pull-down, trypsin, UPLC-MS/MS; targets = in both replicates and in neither control
[1] = target: T1, Ecm11-TurboID (S. cerevisiae) (UniProt Q04110)
T1 sequence: B1 chain

[2] = target: T2, Msh4-TurboID (S. cerevisiae) (UniProt P40965)
T2 sequence: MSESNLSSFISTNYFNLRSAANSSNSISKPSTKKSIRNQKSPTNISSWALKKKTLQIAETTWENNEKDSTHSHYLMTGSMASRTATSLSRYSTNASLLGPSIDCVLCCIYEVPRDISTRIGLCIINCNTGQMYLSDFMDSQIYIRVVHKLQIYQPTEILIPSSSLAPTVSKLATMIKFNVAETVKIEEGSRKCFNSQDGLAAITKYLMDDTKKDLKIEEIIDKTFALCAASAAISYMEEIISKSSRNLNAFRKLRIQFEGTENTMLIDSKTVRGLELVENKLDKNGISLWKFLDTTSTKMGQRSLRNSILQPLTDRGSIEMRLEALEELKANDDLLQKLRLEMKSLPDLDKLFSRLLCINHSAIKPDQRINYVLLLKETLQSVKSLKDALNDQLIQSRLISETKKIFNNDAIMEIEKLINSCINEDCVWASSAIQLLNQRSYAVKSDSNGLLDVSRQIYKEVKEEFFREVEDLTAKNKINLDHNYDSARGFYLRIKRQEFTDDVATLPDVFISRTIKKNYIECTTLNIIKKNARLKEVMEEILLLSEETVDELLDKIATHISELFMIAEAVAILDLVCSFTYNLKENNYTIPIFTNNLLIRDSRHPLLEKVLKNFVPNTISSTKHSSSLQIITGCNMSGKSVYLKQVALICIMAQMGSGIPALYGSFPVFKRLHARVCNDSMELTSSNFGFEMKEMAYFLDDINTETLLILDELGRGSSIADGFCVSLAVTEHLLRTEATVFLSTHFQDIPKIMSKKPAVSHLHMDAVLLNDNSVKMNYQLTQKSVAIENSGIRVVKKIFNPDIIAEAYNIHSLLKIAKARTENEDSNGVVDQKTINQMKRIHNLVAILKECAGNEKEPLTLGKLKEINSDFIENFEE

[3] = target: T3, Msh5-TurboID (S. cerevisiae) (UniProt Q12175)
T3 sequence: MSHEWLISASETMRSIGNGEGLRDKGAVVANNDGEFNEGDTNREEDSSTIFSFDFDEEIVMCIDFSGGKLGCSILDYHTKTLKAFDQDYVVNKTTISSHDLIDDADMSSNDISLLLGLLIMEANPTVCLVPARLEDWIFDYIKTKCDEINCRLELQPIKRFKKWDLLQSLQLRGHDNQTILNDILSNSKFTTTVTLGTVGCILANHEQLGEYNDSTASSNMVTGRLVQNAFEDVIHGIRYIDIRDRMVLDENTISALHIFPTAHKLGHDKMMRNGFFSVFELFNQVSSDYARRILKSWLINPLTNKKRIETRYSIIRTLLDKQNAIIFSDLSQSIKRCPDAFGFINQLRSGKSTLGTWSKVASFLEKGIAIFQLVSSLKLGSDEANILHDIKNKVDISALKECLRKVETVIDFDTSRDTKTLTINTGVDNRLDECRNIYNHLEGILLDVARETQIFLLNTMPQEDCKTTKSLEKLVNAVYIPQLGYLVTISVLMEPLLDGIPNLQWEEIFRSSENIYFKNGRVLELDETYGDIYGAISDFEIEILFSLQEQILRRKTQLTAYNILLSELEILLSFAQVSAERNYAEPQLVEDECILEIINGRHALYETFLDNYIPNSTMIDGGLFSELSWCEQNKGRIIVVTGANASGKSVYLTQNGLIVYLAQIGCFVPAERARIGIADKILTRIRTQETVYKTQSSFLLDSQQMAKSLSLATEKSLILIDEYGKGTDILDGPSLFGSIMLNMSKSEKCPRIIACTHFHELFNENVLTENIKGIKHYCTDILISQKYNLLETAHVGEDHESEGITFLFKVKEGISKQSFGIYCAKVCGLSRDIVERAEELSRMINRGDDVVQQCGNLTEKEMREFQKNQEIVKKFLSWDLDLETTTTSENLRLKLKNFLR

[4] = target: T4, TurboID-Gmc2 (S. cerevisiae) (UniProt Q06201)
T4 sequence: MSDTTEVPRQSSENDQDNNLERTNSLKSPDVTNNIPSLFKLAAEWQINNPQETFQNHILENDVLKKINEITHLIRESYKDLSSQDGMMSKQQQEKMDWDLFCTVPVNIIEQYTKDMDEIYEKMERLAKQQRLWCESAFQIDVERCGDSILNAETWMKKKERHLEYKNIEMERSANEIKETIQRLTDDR

[5] = target: T2, Msh4-TurboID (S. cerevisiae); remark: listed apart in the source

| Molecule | binding [1] | binding [2] | binding [3] | binding [4] | binding [5] |
| --- | --- | --- | --- | --- | --- |
| Zip4 (S. cerevisiae) | no binding | no binding | no binding | no binding |  |
| B1 |  |  |  |  | binds |
| B2 |  |  |  |  | binds |

Like-named read-outs stand apart in the source and are kept apart here. No constants are given. Whether binding was seen depends on the method and setting. Binding seen in cells or lysates may run through a third protein. These calls come from enrichment with a bait or labelling near it, and not all partners need be listed. For part of these data: No binding means not detected with the bait.
